Assay results taken from publication PMC3930493.

Protein sequences, listed by entry. Tags and fused reporters are not part of them. Lines headed by an entry give the natural chain unless they say otherwise; changes in a name come on top.
UniProt A1ZBJ1: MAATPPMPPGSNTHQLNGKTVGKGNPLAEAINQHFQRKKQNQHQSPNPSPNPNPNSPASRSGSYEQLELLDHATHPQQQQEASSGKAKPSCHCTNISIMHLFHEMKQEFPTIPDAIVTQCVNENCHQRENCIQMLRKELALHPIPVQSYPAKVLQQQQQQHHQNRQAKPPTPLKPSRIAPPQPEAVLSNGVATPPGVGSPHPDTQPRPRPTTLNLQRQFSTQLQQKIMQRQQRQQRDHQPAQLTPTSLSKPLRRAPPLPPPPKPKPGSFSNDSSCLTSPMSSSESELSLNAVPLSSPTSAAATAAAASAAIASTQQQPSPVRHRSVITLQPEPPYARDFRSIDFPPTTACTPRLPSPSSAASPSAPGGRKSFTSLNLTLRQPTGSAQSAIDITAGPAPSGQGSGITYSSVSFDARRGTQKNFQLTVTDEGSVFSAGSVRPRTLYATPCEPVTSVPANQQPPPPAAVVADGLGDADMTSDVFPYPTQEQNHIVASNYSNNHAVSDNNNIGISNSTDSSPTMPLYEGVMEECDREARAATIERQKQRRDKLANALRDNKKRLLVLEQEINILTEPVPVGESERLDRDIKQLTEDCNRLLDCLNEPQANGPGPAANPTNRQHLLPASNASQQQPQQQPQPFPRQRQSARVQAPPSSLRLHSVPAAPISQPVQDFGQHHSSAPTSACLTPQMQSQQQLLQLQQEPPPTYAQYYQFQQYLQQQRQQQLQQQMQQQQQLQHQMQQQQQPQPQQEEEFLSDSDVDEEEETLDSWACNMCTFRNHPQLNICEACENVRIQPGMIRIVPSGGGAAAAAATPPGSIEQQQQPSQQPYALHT

B1: Drosophila Trabid-HA (enzyme, UniProt Q9VH90 1-778)
chain: MCDTKDDAQKWKCETCTYENYPSSLKCTMCQASKPLLNEDIFRLSPAQESCTVAEEAAAVEVAVMSPTPSSTCYSLQPQSQARQSNVADSEKWPCKVCTYLNWPRSLRCVQCCTKRGGEAIERGKKDMDNEADGDRAGEALQALRISGSEENLANKPVQLIGATASHRLSLSRGIDDATHLNNLANASHNQSQSQHRQPVLQQQMQLQLQPQQQRESSSSAAVPPQQQKQCYVSKWACNSCTYENWPRSIKCSMCGKTREREISGSQNDLHASSSLNSQEENQQQLQQPNVDTVSVNNSFNKKHIYQLGSSETINNCDTLQERQERRQRQIRRQVDWQWLNACLGVVENNYSAVEAYLSCGGNPARSLTSTEIAALNRNSAFDVGHTLIHLAIRFHREEMLPMLLDQISGSGPGIKRVPSYVAPDLAADIRRHFANTLRLRKSGLPCHYVQKHATFALPAEIEELPIPIQEQLYDELLDRDAQKQLETPPPALNWSLEITARLSSRMFVLWNRSAGDCLLDSAMQATWGVFDRDNILRRALADTLHQCGHVFFTRWKEYEMLQASMLHFTLEDSQFEEDWSTLLSLAGQPGSSLEQLHIFALAHILRRPIIVYGVKYVKSFRGEDIGYARFEGVYLPLFWDQNFCTKSPIALGYTRGHFSALVPMEPFTRIDGRRDDVEDVTYLPLMDCELKLLPIHFLTQSEVGNEESMMRQWLDVCVTDGGLLVAQQKLSKRPLLVAQMLEEWLNHYRRIAQVITAPFIRRPQITHYSSDGDSDEE
B2: Drosophila TAK1-HA (TGF-beta Activating Kinase 1) (protein, UniProt Q9V3Q6 1-678)
chain: MATASLDALQAAYVDFSEITLREKVGHGSYGVVCKAVWRDKLVAVKEFFASAEQKDIEKEVKQLSRVKHPNIIALHGISSYQQATYLIMEFAEGGSLHNFLHGKVKPAYSLAHAMSWARQCAEGLAYLHAMTPKPLIHRDVKPLNLLLTNKGRNLKICDFGTVADKSTMMTNNRGSAAWMAPEVFEGSKYTEKCDIFSWAIVLWEVLSRKQPFKGIDNAYTIQWKIYKGERPPLLTTCPKRIEDLMTACWKTVPEDRPSMQYIVGVMHEIVKDYTGADKALEYTFVNQQIVTKESDGTVAAQPDSLSSQEGELSPSSTQLTPTTAANANVNAIAISKTTTSSMTENTSSTSSDITPTNSGQLDNNPLFYMVTNRWDAIPEEESNESRNDSFNLTSSAEATQRLETIRNGMILMACKPMEQLTLDVEANGFDLSPSESSSSSTNAKSDGRERLTVTDTKPVMMTTDLSNNNGGIHAHSNGLLSHANGWQARDEELQEQEHEQEIVNSLDVDVDPDEDENDGTEQSLAEILDPELQPEPPIPNDAESQLIYRDHRHMAKEYLSVDTNLYYAQDFKDKLIVQMDRTEREQKQELLRKMKDKEGLQSLYNNLQQQYASRQLAAGHHPQPHPHPHPNQLQHPHSHPPMHFLQDEGCGLLPGSVCGGSESVEEGWVVIPPHHNA

Molecular target: Drosophila TAB2-V5 (TAK1-associated Binding Protein 2) (D. melanogaster) (UniProt A1ZBJ1)
Experiment: co-IP; S2 cells co-transfected, lysed 48 hrs post-transfection in RIPA buffer; anti-V5 agarose 2 hours at 4°C; washes with 900 mM NaCl then 150 mM NaCl CoIP wash buffer; 10% SDS PAGE, immunoblot with anti-HA

Row | Binder | binding
1 | B1 | binds weakly
2 | B2 | binds

Results are given in words; binding and its absence hold for the method and conditions named. In cells and extracts the contact can be indirect. Binding can be weak; no strength is given. Where a sequence is shown, tags or fusion partners need not be part of it.
